From paper PMC2760709
Results are given in words; binding and its absence hold for the method and conditions named. Some binding calls cover weakened binding; strength is not graded here.

By UniProt entry, the sequences of proteins in these tests, tags left out.
UniProt P60903: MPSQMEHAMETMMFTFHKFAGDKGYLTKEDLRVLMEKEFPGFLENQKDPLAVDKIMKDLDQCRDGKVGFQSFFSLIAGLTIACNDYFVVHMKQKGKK

Target: S100A10 (p11) (UniProt P60903)
Assay: SPR; NBD1 amine-coupled on CM5 chip; p11 (400 µg/ml) and preincubated cPLA2α/ANXA1 (100 µg/ml each) sequentially co-injected, the complex before dissociation of p11; both purified

B1: cPLA2α/ANXA1 complex (preincubated) (complex, UniProt P47712 1-749; P46193 1-346)
chain 1: MSFIDPYQHIIVEHQYSHKFTVVVLRATKVTKGAFGDMLDTPDPYVELFISTTPDSRKRTRHFNNDINPVWNETFEFILDPNQENVLEITLMDANYVMDETLGTATFTVSSMKVGEKKEVPFIFNQVTEMVLEMSLEVCSCPDLRFSMALCDQEKTFRQQRKEHIRESMKKLLGPKNSEGLHSARDVPVVAILGSGGGFRAMVGFSGVMKALYESGILDCATYVAGLSGSTWYMSTLYSHPDFPEKGPEEINEELMKNVSHNPLLLLTPQKVKRYVESLWKKKSSGQPVTFTDIFGMLIGETLIHNRMNTTLSSLKEKVNTAQCPLPLFTCLHVKPDVSELMFADWVEFSPYEIGMAKYGTFMAPDLFGSKFFMGTVVKKYEENPLHFLMGVWGSAFSILFNRVLGVSGSQSRGSTMEEELENITTKHIVSNDSSDSDDESHEPKGTENEDAGSDYQSDNQASWIHRMIMALVSDSALFNTREGRAGKVHNFMLGLNLNTSYPLSPLSDFATQDSFDDDELDAAVADPDEFERIYEPLDVKSKKIHVVDSGLTFNLPYPLILRPQRGVDLIISFDFSARPSDSSPPFKELLLAEKWAKMNKLPFPKIDPYVFDREGLKECYVFKPKNPDMEKDCPTIIHFVLANINFRKYRAPGVPRETEEEKEIADFDIFDDPESPFSTFNFQYPNQAFKRLHDLMHFNTLNNIDVIKEAMVESIEYRRQNPSRCSVSLSNVEARRFFNKEFLSKPKA
chain 2: MAMVSEFLKQAWFIENEEQEYIKTVKGSKGGPGSAVSPYPTFNPSSDVEALHKAITVKGVDEATIIEILTKRNNAQRQQIKAAYLQEKGKPLDEVLKKALLGHLEEVVLALLKTPAQFDAEELRAAMKGLGTDEDTLNEILASRTNREIREINRVYREELKRDLAKDIASDTSGDYEKALLSLAKGDRSEELAVNDDLADSDARALYEAGERRKGTDVNVFITILTTRSYPHLRRVFQKYSKYSKHDMNKVLDLELKGDIEKCLTVIVKCATSQPMFFAEKLHQAMKGIGTRHKTLIRIMVSRSEIDMNDIKACYQKLYGISLCQAILDETKGDYEKILVALCGRD
binding: binds
